Assay results published in the supplement of paper PMC12823440, “Inhibitors supercharge kinase turnover through native proteolytic circuits” (Nature, 2025).
Some of the results follow. The calls rarely recur for the same compound in another form.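 Kinases, fused to nanoluciferase, were expressed in K562 cells; luminescence was measured every 4 h from 2 to 18 h as percent of control (DMSO = 100%, positive control = 0%). A time point is decreased if signal falls significantly (2 sigma). Hits were called by the authors by a rule that is not shown; the count of time points alone does not decide it.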

The chains behind the UniProt entries cited, without tags or fusion partners. Where a name states a change or a piece, a line headed by the entry shows the natural chain unless it says otherwise.
UniProt P31749: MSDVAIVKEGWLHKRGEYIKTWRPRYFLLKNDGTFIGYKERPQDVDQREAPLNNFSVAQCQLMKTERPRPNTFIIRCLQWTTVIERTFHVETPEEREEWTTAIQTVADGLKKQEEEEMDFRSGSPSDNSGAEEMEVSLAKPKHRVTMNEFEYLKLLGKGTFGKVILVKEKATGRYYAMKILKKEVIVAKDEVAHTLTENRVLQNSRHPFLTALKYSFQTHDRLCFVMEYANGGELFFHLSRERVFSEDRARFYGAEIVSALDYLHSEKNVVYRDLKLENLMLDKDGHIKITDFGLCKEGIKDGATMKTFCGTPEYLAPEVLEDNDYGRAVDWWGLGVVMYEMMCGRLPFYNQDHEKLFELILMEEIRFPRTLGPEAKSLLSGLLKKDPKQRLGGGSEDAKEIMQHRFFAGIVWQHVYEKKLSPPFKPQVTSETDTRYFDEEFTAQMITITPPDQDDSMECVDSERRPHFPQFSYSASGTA
UniProt Q9UM73: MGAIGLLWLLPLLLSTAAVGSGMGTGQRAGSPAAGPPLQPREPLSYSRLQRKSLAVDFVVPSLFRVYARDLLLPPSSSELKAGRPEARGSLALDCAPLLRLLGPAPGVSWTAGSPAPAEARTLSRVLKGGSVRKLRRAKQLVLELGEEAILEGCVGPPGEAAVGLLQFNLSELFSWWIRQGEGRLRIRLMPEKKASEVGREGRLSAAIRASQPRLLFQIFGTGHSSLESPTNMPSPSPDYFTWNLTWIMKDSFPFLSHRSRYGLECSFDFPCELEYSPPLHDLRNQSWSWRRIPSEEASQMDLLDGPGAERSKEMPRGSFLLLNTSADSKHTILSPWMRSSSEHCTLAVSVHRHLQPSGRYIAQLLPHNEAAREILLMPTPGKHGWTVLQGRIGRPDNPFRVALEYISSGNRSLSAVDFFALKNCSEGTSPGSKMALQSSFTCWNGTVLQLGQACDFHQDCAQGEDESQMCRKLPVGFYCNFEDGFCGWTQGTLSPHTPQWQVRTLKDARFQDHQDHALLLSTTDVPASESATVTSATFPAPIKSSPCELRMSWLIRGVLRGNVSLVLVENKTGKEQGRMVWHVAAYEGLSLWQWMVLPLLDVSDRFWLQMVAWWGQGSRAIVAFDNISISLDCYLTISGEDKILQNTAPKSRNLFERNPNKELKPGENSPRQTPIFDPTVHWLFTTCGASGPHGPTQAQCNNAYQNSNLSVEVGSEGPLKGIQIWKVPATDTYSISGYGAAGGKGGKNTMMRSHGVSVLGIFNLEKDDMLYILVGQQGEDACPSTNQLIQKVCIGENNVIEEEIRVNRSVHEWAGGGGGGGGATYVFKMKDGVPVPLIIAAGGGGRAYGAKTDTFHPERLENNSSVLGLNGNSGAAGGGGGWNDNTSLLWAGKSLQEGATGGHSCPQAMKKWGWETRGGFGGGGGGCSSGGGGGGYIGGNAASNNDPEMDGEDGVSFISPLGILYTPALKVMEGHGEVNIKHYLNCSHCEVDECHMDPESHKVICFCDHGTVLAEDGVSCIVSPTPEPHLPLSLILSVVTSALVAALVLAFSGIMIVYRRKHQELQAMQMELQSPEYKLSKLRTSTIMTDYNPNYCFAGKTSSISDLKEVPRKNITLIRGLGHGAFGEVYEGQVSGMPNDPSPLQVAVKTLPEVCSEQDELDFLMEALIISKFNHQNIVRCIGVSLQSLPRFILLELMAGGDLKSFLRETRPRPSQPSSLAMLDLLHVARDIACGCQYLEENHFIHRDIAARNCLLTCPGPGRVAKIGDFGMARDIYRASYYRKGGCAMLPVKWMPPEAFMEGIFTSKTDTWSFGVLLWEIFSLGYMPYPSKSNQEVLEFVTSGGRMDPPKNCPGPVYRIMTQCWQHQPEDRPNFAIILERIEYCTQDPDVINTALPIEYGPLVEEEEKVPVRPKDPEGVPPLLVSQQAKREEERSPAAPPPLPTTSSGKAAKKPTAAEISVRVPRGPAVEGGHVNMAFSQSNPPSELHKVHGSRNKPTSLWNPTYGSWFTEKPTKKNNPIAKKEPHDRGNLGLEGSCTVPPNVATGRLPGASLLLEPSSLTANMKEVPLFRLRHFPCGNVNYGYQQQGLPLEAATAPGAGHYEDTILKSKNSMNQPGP
UniProt P10398: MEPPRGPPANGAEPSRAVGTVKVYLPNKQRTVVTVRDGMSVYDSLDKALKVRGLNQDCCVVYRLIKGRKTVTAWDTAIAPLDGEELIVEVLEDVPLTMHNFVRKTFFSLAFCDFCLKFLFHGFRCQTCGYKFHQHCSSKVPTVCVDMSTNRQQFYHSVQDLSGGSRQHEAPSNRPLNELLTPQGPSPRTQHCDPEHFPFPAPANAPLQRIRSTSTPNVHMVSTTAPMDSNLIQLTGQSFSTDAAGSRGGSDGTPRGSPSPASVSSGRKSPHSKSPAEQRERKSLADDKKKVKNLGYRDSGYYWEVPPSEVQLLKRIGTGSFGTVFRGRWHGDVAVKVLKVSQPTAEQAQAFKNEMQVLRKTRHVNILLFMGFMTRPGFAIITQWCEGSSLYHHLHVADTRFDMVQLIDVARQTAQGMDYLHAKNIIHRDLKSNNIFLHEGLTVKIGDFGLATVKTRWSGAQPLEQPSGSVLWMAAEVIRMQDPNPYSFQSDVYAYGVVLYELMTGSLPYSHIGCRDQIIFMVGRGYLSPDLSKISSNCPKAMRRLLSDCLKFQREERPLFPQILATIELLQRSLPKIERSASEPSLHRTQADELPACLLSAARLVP
UniProt O14965: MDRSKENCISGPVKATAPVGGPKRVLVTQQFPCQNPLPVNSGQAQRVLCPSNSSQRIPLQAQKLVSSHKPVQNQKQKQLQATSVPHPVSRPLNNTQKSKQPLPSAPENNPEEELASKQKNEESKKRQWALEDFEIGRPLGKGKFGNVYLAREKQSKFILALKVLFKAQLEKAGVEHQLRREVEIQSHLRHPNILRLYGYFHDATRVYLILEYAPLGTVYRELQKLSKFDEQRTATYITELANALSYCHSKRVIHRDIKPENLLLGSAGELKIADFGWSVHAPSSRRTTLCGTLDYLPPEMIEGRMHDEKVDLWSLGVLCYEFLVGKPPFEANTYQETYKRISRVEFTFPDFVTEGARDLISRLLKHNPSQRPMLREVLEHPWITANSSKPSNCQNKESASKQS
UniProt Q96GD4, whole entry: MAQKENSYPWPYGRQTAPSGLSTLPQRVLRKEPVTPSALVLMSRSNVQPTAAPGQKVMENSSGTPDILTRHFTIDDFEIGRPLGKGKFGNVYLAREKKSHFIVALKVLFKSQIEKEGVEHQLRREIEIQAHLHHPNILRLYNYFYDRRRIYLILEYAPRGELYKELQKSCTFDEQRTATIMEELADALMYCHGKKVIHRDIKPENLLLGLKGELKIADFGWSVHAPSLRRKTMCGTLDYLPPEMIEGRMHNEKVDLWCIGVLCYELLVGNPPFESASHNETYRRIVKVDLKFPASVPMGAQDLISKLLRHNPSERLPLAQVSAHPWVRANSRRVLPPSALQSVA
UniProt P51451: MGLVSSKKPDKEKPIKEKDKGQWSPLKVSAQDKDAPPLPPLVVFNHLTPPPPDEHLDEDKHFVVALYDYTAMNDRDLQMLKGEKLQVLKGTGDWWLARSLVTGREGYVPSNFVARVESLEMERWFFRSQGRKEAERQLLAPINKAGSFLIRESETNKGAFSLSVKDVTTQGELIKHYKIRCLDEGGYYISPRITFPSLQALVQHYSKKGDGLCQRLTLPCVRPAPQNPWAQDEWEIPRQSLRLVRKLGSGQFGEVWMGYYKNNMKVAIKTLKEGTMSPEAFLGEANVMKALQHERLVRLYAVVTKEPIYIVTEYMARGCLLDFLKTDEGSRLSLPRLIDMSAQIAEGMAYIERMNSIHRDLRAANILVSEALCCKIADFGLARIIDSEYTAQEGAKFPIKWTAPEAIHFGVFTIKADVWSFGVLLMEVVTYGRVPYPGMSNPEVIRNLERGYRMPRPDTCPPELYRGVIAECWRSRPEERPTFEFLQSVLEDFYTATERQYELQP
UniProt Q06187: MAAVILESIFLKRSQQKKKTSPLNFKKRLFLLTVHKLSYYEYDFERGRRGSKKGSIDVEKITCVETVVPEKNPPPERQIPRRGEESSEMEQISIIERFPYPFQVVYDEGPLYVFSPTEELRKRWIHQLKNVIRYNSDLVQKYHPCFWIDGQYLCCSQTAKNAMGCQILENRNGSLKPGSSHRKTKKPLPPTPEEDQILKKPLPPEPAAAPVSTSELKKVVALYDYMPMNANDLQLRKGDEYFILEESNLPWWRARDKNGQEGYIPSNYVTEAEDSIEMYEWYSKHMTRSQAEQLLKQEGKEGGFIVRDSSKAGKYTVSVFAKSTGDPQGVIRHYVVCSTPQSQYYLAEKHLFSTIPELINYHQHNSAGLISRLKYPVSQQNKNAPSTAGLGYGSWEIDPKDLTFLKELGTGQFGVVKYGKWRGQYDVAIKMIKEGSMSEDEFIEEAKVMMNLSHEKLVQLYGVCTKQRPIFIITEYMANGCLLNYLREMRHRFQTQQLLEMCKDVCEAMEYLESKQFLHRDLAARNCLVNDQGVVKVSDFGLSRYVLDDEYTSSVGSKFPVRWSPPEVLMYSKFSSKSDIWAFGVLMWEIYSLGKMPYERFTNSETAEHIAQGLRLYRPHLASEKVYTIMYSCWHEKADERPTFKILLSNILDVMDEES
UniProt Q9UQM7, whole entry: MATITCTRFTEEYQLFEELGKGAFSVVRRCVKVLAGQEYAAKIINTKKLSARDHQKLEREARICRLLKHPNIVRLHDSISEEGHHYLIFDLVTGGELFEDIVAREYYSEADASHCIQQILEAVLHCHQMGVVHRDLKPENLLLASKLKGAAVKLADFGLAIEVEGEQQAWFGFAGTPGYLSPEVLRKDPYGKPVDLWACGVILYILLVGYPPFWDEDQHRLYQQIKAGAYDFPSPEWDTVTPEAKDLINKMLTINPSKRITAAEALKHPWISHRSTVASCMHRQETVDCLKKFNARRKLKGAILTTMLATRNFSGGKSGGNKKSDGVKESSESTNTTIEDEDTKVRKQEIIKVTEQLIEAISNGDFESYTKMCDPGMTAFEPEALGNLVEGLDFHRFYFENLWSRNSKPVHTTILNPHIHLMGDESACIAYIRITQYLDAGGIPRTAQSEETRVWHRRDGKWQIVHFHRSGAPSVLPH
UniProt Q13555: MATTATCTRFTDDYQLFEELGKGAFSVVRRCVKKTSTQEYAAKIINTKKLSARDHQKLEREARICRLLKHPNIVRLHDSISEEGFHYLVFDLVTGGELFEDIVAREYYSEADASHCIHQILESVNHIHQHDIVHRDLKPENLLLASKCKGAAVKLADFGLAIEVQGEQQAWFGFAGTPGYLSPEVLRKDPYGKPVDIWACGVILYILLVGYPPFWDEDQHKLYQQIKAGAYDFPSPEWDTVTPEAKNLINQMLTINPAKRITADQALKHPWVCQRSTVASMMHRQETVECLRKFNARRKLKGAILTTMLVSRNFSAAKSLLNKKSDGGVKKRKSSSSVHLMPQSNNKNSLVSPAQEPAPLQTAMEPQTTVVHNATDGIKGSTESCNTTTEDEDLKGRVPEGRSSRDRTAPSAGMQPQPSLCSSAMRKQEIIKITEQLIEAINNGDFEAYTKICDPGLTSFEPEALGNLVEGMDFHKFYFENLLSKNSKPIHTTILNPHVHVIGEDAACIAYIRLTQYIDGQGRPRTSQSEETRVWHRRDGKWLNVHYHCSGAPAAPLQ
UniProt Q00526: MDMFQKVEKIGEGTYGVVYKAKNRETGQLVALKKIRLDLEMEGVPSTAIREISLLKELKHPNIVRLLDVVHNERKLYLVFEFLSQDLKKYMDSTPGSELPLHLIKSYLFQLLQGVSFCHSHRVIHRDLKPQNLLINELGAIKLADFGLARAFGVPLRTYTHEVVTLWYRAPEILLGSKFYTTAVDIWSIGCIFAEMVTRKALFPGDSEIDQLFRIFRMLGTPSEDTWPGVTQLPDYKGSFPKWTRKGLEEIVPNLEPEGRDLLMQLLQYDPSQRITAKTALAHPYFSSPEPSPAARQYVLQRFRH
UniProt P11802: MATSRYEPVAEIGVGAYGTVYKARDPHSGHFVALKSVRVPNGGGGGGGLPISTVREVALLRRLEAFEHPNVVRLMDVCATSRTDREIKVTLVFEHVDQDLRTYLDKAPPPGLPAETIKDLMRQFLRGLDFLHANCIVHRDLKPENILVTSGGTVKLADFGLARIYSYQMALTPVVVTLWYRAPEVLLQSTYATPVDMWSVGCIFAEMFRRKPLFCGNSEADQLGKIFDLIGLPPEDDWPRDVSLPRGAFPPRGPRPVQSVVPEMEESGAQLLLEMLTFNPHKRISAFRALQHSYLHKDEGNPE
UniProt Q00535, whole entry, looked up: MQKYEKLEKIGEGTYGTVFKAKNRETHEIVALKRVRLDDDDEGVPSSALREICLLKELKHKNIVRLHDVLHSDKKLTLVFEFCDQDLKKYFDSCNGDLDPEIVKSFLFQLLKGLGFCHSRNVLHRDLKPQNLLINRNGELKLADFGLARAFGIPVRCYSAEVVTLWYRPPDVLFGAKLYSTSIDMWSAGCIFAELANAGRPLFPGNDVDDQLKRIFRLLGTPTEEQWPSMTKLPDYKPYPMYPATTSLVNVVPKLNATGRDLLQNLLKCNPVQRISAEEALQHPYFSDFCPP

Legend:
Assay in all cases: kinase-Nluc reporter destabilization hit call (1 = scored as downregulated) (binary); higher = compound decreases kinase abundance
Conditions in all cases: K562, 2-18 h
ABL1 = ABL1 (UniProt P00519)
AKT1 = AKT1 (UniProt P31749)
ALK = ALK (UniProt Q9UM73)
ARAF = ARAF (UniProt P10398)
AURKA = AURKA (UniProt O14965)
AURKB = AURKB (UniProt Q96GD4)
AURKC = AURKC (UniProt Q9UQB9)
BLK = BLK (UniProt P51451)
BMX = BMX (UniProt P51813)
BRAF = BRAF (UniProt P15056)
BRAF_V600E = tested on: BRAF_V600E
BTK = BTK (UniProt Q06187)
CAMK2A = CAMK2A (UniProt Q9UQM7)
CAMK2G = CAMK2G (UniProt Q13555)
CDK10 = CDK10 (UniProt Q15131)
CDK2 = CDK2 (UniProt P24941)
CDK3 = CDK3 (UniProt Q00526)
CDK4 = CDK4 (UniProt P11802)
CDK5 = CDK5 (UniProt Q00535)
CDK6 = CDK6 (UniProt Q00534)

Row | SMILES | kinase-Nluc reporter destabilization hit call (ABL1; 2 µM) | kinase-Nluc reporter destabilization hit call (AKT1; 2 µM) | kinase-Nluc reporter destabilization hit call (ALK; 2 µM) | kinase-Nluc reporter destabilization hit call (ARAF; 2 µM) | kinase-Nluc reporter destabilization hit call (AURKA; 2 µM) | kinase-Nluc reporter destabilization hit call (AURKB; 2 µM) | kinase-Nluc reporter destabilization hit call (AURKC; 2 µM) | kinase-Nluc reporter destabilization hit call (BLK; 2 µM) | kinase-Nluc reporter destabilization hit call (BMX; 2 µM) | kinase-Nluc reporter destabilization hit call (BRAF; 2 µM) | kinase-Nluc reporter destabilization hit call (BRAF_V600E; 2 µM) | kinase-Nluc reporter destabilization hit call (BTK; 2 µM) | kinase-Nluc reporter destabilization hit call (CAMK2A; 2 µM) | kinase-Nluc reporter destabilization hit call (CAMK2G; 2 µM) | kinase-Nluc reporter destabilization hit call (CDK10; 2 µM) | kinase-Nluc reporter destabilization hit call (CDK2; 2 µM) | kinase-Nluc reporter destabilization hit call (CDK3; 2 µM) | kinase-Nluc reporter destabilization hit call (CDK4; 2 µM) | kinase-Nluc reporter destabilization hit call (CDK5; 2 µM) | kinase-Nluc reporter destabilization hit call (CDK6; 2 µM) | kinase-Nluc reporter destabilization hit call (ABL1; 10 µM) | kinase-Nluc reporter destabilization hit call (AKT1; 10 µM) | kinase-Nluc reporter destabilization hit call (ALK; 10 µM) | kinase-Nluc reporter destabilization hit call (ARAF; 10 µM) | kinase-Nluc reporter destabilization hit call (AURKA; 10 µM) | kinase-Nluc reporter destabilization hit call (AURKB; 10 µM) | kinase-Nluc reporter destabilization hit call (AURKC; 10 µM) | kinase-Nluc reporter destabilization hit call (BLK; 10 µM) | kinase-Nluc reporter destabilization hit call (BMX; 10 µM) | kinase-Nluc reporter destabilization hit call (BRAF; 10 µM) | kinase-Nluc reporter destabilization hit call (BRAF_V600E; 10 µM) | kinase-Nluc reporter destabilization hit call (BTK; 10 µM) | kinase-Nluc reporter destabilization hit call (CAMK2A; 10 µM) | kinase-Nluc reporter destabilization hit call (CAMK2G; 10 µM) | kinase-Nluc reporter destabilization hit call (CDK10; 10 µM) | kinase-Nluc reporter destabilization hit call (CDK2; 10 µM) | kinase-Nluc reporter destabilization hit call (CDK3; 10 µM) | kinase-Nluc reporter destabilization hit call (CDK4; 10 µM) | kinase-Nluc reporter destabilization hit call (CDK5; 10 µM) | kinase-Nluc reporter destabilization hit call (CDK6; 10 µM)
1 | CCc1nc(C(N)=O)c(Nc2ccc(N3CCC(N4CCN(C)CC4)CC3)c(OC)c2)nc1NC1CCOCC1 [Gilteritinib hemifumarate] | inactive: 0 | inactive: 0 | inactive: 0 | inactive: 0 | inactive: 0 | inactive: 0 | inactive: 0 | inactive: 0 | inactive: 0 | inactive: 0 | inactive: 0 | inactive: 0 | inactive: 0 | inactive: 0 | inactive: 0 | inactive: 0 | inactive: 0 | inactive: 0 | inactive: 0 | inactive: 0 |  |  |  |  |  |  |  |  |  |  |  |  |  |  |  |  |  |  |  | 
2 | Cn1cc(-c2cnc3ccc4ccc(CS(=O)(=O)NCc5ccccn5)cc4c(=O)c3c2)cn1 |  |  |  |  |  |  |  |  |  |  |  |  |  |  |  |  |  |  |  |  | inactive: 0 | inactive: 0 | inactive: 0 | inactive: 0 | inactive: 0 | inactive: 0 | inactive: 0 | inactive: 0 | inactive: 0 | inactive: 0 | inactive: 0 | inactive: 0 | inactive: 0 | inactive: 0 | inactive: 0 | inactive: 0 | inactive: 0 | inactive: 0 | inactive: 0 | inactive: 0
3 | O=C(O)c1ccc2c(c1)nc(Nc1cccc(Cl)c1)c1ccncc12 [Silmitasertib] |  |  |  |  |  |  |  |  |  |  |  |  |  |  |  |  |  |  |  |  | inactive: 0 | inactive: 0 | inactive: 0 | inactive: 0 | inactive: 0 | inactive: 0 | inactive: 0 | inactive: 0 | active: 1 | active: 1 | inactive: 0 | inactive: 0 | inactive: 0 | inactive: 0 | inactive: 0 | inactive: 0 | inactive: 0 | inactive: 0 | inactive: 0 | inactive: 0
4 | Cn1ncc(Cl)c1-c1cc(C(=O)N[C@H](CN)Cc2cccc(F)c2)sc1Cl [Afuresertib] |  |  |  |  |  |  |  |  |  |  |  |  |  |  |  |  |  |  |  |  | inactive: 0 | inactive: 0 | inactive: 0 | inactive: 0 | inactive: 0 | inactive: 0 | inactive: 0 | active: 1 | inactive: 0 | inactive: 0 | inactive: 0 | inactive: 0 | inactive: 0 | inactive: 0 | inactive: 0 | inactive: 0 | inactive: 0 | inactive: 0 | inactive: 0 | inactive: 0
